Some of the results follow.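 Rule for the calls: active = dose-dependent thermal stabilisation significant by F-test of dose-response against flat model at 10% FDR; inactive = not significant.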

The chains behind the UniProt entries cited, without tags or fusion partners. Where a name states a change or a piece, a line headed by the entry shows the natural chain unless it says otherwise.
UniProt Q9NR45: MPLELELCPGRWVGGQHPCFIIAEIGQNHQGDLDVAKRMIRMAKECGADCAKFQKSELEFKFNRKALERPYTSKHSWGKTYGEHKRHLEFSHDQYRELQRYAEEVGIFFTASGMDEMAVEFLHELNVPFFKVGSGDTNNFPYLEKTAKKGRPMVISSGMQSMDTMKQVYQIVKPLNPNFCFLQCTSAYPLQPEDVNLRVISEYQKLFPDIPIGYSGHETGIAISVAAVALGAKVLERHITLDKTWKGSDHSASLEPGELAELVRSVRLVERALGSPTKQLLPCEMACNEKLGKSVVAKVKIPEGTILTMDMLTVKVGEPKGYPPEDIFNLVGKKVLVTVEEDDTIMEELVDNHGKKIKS
UniProt Q9NZJ9: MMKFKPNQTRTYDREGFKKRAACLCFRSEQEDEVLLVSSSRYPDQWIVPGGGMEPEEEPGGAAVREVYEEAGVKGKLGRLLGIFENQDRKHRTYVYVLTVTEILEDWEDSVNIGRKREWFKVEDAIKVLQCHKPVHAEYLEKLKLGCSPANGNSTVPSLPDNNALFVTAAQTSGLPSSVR
UniProt Q9GZM8: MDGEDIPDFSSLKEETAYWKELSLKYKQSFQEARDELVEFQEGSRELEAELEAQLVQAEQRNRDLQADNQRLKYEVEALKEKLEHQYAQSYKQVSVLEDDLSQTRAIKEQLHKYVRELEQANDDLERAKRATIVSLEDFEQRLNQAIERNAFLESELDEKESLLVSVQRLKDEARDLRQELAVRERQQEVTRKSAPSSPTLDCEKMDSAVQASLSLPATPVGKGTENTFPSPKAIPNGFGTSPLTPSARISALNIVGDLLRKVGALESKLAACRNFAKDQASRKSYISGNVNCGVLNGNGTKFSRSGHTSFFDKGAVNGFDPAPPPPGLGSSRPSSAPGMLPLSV
UniProt Q15596: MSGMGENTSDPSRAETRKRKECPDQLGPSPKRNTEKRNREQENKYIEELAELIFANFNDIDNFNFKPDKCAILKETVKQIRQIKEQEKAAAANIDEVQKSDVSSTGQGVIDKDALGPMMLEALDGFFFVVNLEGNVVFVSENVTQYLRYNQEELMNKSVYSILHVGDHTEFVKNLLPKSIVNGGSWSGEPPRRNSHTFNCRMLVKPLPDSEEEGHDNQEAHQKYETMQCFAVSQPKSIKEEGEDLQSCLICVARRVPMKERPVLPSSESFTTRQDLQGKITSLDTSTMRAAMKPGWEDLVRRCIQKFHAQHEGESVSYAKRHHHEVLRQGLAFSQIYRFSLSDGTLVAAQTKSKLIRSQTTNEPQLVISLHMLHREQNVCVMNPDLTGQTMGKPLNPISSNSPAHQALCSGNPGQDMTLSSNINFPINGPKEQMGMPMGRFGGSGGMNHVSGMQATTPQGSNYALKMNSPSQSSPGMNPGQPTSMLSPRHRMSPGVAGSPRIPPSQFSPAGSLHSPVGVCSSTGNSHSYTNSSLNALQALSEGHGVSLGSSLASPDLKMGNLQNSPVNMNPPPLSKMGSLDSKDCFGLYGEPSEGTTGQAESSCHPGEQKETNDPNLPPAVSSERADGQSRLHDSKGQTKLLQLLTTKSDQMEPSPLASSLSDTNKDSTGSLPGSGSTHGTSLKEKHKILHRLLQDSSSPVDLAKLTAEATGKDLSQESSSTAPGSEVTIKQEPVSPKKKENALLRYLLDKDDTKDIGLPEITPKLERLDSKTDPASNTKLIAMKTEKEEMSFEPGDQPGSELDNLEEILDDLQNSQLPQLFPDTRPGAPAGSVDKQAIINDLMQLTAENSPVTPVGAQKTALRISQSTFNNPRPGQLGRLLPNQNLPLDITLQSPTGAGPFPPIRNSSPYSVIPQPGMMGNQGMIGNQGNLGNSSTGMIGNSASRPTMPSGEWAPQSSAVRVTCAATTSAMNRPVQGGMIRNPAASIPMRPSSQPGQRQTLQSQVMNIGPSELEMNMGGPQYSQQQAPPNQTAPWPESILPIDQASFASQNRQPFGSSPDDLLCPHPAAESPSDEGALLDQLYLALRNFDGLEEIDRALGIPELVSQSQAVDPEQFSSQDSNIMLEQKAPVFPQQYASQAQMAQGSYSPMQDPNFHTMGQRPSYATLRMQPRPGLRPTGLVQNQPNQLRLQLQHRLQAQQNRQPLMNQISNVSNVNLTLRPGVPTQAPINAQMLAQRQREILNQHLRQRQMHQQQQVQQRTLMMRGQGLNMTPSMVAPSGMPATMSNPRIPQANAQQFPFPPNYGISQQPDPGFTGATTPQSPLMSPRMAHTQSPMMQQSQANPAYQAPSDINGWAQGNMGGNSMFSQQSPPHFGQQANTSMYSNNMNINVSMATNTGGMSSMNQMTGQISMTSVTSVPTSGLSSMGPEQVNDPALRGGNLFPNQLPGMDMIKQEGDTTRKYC
UniProt P11940, whole entry: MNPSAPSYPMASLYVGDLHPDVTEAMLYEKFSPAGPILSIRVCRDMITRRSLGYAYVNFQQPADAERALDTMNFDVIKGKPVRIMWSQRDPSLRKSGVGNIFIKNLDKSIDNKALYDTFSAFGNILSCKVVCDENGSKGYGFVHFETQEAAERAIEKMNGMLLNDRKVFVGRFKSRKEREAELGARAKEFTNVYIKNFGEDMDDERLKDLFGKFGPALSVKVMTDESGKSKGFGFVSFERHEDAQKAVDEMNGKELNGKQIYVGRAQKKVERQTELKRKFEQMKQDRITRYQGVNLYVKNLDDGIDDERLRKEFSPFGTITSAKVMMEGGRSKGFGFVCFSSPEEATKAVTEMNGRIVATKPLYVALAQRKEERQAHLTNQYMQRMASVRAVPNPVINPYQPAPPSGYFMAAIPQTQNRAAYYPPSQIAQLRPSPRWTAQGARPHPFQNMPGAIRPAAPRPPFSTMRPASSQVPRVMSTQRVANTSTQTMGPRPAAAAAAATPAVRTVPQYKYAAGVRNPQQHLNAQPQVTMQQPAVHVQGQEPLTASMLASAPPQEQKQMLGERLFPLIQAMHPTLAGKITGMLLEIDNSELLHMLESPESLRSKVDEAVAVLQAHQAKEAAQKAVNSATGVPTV
UniProt Q9H857: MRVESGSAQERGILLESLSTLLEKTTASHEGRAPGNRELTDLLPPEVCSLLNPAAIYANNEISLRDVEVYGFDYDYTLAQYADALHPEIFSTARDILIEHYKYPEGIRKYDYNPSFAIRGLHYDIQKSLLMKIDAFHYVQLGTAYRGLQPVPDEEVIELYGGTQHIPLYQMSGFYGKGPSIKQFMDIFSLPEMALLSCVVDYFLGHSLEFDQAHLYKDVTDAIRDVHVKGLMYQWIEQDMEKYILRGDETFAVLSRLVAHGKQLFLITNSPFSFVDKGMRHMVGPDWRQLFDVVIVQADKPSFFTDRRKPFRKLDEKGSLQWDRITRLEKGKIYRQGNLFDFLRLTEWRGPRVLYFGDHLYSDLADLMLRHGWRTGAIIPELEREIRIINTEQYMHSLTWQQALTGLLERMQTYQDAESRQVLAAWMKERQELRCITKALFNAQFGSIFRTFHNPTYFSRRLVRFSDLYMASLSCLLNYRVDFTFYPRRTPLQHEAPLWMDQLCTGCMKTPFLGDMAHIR
UniProt P61916: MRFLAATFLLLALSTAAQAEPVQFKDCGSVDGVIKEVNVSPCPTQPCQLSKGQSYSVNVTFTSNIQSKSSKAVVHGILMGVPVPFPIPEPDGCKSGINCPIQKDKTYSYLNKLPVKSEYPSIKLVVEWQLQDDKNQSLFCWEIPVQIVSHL
UniProt Q96MG7: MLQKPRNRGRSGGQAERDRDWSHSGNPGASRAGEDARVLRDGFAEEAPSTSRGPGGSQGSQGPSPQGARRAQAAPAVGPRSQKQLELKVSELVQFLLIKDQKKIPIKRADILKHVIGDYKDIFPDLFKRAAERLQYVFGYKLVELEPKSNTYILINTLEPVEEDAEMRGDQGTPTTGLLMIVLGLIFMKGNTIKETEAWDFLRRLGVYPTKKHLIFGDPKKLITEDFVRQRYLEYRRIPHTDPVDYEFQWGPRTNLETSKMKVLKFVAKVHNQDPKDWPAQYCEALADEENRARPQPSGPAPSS
UniProt Q8WVF1: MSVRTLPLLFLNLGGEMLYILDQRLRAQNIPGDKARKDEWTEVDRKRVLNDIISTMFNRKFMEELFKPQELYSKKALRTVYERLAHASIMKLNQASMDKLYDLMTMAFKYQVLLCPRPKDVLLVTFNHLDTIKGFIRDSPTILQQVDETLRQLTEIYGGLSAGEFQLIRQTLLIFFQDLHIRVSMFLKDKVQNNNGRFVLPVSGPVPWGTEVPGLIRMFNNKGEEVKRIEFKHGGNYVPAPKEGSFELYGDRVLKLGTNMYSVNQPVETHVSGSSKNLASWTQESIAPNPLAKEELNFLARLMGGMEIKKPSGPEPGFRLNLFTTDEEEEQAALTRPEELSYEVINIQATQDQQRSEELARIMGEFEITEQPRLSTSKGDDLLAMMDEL
UniProt Q8N6M0: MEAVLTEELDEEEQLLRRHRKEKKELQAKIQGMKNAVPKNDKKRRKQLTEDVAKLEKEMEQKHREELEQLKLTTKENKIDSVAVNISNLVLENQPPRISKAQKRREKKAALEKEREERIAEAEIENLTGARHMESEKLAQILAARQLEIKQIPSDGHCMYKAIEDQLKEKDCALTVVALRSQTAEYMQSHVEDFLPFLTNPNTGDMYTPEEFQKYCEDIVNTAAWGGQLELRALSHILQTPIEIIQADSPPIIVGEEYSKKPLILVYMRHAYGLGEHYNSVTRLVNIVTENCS
UniProt Q6VY07, whole entry, looked up: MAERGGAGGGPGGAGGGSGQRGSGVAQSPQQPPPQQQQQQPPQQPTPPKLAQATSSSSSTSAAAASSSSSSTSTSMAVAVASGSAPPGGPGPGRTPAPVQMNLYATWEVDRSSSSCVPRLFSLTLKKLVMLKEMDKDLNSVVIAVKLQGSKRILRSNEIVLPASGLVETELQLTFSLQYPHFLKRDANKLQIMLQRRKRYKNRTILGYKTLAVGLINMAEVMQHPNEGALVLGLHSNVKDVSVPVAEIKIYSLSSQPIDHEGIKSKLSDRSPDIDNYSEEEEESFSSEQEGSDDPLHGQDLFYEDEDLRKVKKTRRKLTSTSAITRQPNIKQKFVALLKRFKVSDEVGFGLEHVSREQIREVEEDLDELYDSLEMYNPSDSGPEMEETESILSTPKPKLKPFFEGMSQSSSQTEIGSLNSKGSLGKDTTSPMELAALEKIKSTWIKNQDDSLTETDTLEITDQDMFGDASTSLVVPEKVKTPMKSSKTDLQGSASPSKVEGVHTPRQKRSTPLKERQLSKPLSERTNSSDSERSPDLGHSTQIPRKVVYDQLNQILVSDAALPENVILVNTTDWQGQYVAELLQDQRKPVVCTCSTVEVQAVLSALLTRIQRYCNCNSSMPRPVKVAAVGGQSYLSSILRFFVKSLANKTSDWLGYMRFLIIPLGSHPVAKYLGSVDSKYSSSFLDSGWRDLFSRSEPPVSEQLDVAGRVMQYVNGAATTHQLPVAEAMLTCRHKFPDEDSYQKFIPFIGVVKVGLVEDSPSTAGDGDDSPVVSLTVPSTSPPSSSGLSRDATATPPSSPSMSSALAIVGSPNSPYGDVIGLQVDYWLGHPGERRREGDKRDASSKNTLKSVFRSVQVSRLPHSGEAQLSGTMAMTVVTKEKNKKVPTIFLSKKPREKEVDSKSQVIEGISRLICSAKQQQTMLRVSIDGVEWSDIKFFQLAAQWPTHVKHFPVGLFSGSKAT
UniProt P18615, whole entry: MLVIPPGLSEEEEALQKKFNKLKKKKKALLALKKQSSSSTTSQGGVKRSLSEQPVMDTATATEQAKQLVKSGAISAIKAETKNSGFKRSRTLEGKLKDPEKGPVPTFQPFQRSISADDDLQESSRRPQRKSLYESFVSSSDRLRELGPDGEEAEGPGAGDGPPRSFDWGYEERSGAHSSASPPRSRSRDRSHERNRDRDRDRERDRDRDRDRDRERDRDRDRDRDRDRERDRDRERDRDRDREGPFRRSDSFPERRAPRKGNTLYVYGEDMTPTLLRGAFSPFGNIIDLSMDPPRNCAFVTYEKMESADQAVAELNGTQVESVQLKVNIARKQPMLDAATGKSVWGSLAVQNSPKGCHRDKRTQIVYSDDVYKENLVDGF
UniProt Q9UNF0: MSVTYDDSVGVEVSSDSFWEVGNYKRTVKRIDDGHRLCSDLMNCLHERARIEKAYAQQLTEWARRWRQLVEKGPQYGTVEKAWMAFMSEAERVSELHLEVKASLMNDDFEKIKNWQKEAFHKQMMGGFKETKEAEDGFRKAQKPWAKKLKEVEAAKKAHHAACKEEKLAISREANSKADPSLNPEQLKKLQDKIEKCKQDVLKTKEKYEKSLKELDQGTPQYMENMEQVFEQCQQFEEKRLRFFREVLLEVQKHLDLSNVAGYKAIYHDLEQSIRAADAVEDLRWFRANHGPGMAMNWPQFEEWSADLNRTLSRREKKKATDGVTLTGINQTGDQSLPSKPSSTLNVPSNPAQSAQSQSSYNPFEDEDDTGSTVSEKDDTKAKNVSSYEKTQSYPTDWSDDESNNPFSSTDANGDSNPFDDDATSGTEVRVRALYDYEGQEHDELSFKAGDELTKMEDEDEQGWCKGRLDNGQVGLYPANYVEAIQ

Compound in this assay: Nc1nc2c(ncn2[C@@H]2O[C@H](COP(=O)(O)OP(=O)(O)OP(=O)(O)O)[C@@H](O)[C@H]2O)c(=O)[nH]1
The assay can be described thus: dose-dependent thermal stabilisation call (2D-TPP, DLPTP, 10% FDR) (binary (1 = stabilised)); higher = stabilised by the compound. The conditions noted are these: system: Jurkat gel-filtered lysate; concentration range 1-500 µM.
As to NUBP1 (UniProt P53384), the “dose-dependent thermal stabilisation call” value is inactive: 0.

With OPTN (UniProt Q96CV9), the “dose-dependent thermal stabilisation call” value was inactive: 0.

On to NCAPD3 (UniProt P42695), for which the “dose-dependent thermal stabilisation call” value was active: 1.

On to NBEA (UniProt Q8NFP9), for which the “dose-dependent thermal stabilisation call” value was inactive: 0.

Consider NANS (UniProt Q9NR45), for which the “dose-dependent thermal stabilisation call” value is inactive: 0.

Consider NUDT4 (UniProt Q9NZJ9), for which the “dose-dependent thermal stabilisation call” value is inactive: 0.

As to NDEL1 (UniProt Q9GZM8), the “dose-dependent thermal stabilisation call” value is inactive: 0.

On to NEK7 (UniProt Q8TDX7), for which the “dose-dependent thermal stabilisation call” value was active: 1.

NCOA2 (UniProt Q15596): the “dose-dependent thermal stabilisation call” value is inactive: 0.

For the target PABPC1 (UniProt P11940), the “dose-dependent thermal stabilisation call” value is inactive: 0.

For NT5DC2 (UniProt Q9H857), the “dose-dependent thermal stabilisation call” value was inactive: 0.

In the case of NQO1 (UniProt P15559), the “dose-dependent thermal stabilisation call” value was active: 1.

NLE1 (UniProt Q9NVX2): the “dose-dependent thermal stabilisation call” value was inactive: 0.

Consider NKTR (UniProt P30414), for which the “dose-dependent thermal stabilisation call” value is inactive: 0.

Consider NPC2 (UniProt P61916), for which the “dose-dependent thermal stabilisation call” value is inactive: 0.

Consider OGFOD1 (UniProt Q8N543), for which the “dose-dependent thermal stabilisation call” value was inactive: 0.

For the target NSMCE3 (UniProt Q96MG7), the “dose-dependent thermal stabilisation call” value was inactive: 0.

On to NUDCD3 (UniProt Q8IVD9), for which the “dose-dependent thermal stabilisation call” value is inactive: 0.

In the case of NAA30 (UniProt Q147X3), the “dose-dependent thermal stabilisation call” value is active: 1.

On to PATL1 (UniProt Q86TB9), for which the “dose-dependent thermal stabilisation call” value was active: 1.

On to OSCP1 (UniProt Q8WVF1), for which the “dose-dependent thermal stabilisation call” value was inactive: 0.

For the target NSD3 (UniProt Q9BZ95), the “dose-dependent thermal stabilisation call” value is inactive: 0.

On to NAA20 (UniProt P61599), for which the “dose-dependent thermal stabilisation call” value is inactive: 0.

Regarding OTUD6B (UniProt Q8N6M0), the “dose-dependent thermal stabilisation call” value is inactive: 0.

Consider NFKBIE (UniProt O00221), for which the “dose-dependent thermal stabilisation call” value was inactive: 0.

As to NT5DC1 (UniProt Q5TFE4), the “dose-dependent thermal stabilisation call” value is inactive: 0.

Take PACS1 (UniProt Q6VY07): the “dose-dependent thermal stabilisation call” value is active: 1.

For NCBP1 (UniProt Q09161), the “dose-dependent thermal stabilisation call” value was active: 1.

As to NELFB (UniProt Q8WX92), the “dose-dependent thermal stabilisation call” value is inactive: 0.

Turning to NFS1 (UniProt Q9Y697), the “dose-dependent thermal stabilisation call” value is inactive: 0.

On to OSBPL9 (UniProt Q96SU4), for which the “dose-dependent thermal stabilisation call” value was inactive: 0.

Regarding NELFE (UniProt P18615), the “dose-dependent thermal stabilisation call” value was inactive: 0.

Regarding NUDT2 (UniProt P50583), the “dose-dependent thermal stabilisation call” value is active: 1.

For NME4 (UniProt O00746), the “dose-dependent thermal stabilisation call” value was active: 1.

In the case of PACSIN2 (UniProt Q9UNF0), the “dose-dependent thermal stabilisation call” value was inactive: 0.

As to NCOA5 (UniProt Q9HCD5), the “dose-dependent thermal stabilisation call” value was inactive: 0.

(Values after the supplement of paper PMC7666118.)
